{
  "source": "PubChem BioAssay AID256",
  "about": "(DTP/NCI, 2004)",
  "tested_on": "CD2F1 mice, L1210 leukemia ip, survival T/C",
  "assay": "NCI In Vivo Anticancer Drug Screen. Data for tumor model L1210 Leukemia (intraperitoneal) in CD2F1 (CDF1) mice",
  "details": "higher T/C = longer survival",
  "procedure,_shortened": "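Ratio T/C, where T is the treated-group value and C the vehicle-dosed control value, from mice implanted with a transplantable tumor.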",
  "key": {"[1]": {"details": "T/C endpoint: mean survival time, dose: 200.0 mg/kg/injection, schedule: Q04DX003 (ip), vehicle: saline with Tween-80"}, "[2]": {"details": "T/C endpoint: mean survival time, dose: 400.0 mg/kg/injection, schedule: Q04DX003 (ip), vehicle: saline with Tween-80"}, "[3]": {"details": "T/C endpoint: mean survival time, dose: 100.0 mg/kg/injection, schedule: Q04DX003 (ip), vehicle: saline with Tween-80"}, "[4]": {"details": "T/C endpoint: mean survival time, dose: 400.0 mg/kg/injection, schedule: Q04DX003 (ip), vehicle: saline"}, "[5]": {"details": "T/C endpoint: mean survival time, dose: 200.0 mg/kg/injection, schedule: Q01DX009 (ip), vehicle: saline with Tween-80"}},
  "note": "The list shows only some results of the screen, not a fair sample: it is rich in T/C values a quarter to a half above the control, in often repeated tests (any T/C) and in doses without a T/C. Further doses and runs are listed elsewhere. T/C: endpoint of the treated group in % of that of the vehicle group. Some doses have a count of surviving animals in place of a T/C: the source holds a T/C of zero for them, seemingly a mark for toxic or unscored doses. Some survivor counts are full or nearly so, which does not show that the dose was tolerated: survival well below the control is almost never listed, so the zero probably covers shortened survival too. Survivors were counted at the toxicity check, usually on the fifth day, unless a day is given; later deaths do not show. Schedule codes are those of the source, read here as Q, the interval in days (D) or hours (H), X, the number of doses. Some entries hold several experiments; their values stand side by side, smallest first. Where survival is the endpoint, this PubChem deposit counts one and a half times the control or more as active, and values a quarter to a half above the control carry no call in these data; other NCI protocols may use other cut-offs.",
  "data": [
    {"smiles": "Cc1ccc(C)c(C(C)NC2=NCCO2)c1", "note": "(stereo not given)", "values": [
      {"measurement": "survivor count", "setting": "[1]", "result": "0 of 6"},
      {"measurement": "survivor count", "setting": "[2]", "result": "0 of 6"}
    ]},
    {"smiles": "COc1ccc(OC)c(C2N(C)CCCN2C)c1", "values": [
      {"measurement": "survivor count", "setting": "[3]", "result": "2 of 6"},
      {"measurement": "survivor count", "setting": "[1]", "result": "0 of 6"},
      {"measurement": "survivor count", "setting": "[2]", "result": "0 of 6"}
    ]},
    {"smiles": "CCOc1ccc(/C=C/c2cc[n+](C)cc2)cc1OC", "values": [
      {"measurement": "survivor count", "setting": "T/C endpoint: mean survival time, dose: 200.0 mg/kg/injection, schedule: Q01DX001 (ip), vehicle: saline", "result": "0 of 6"},
      {"measurement": "survivor count", "setting": "T/C endpoint: mean survival time, dose: 400.0 mg/kg/injection, schedule: Q01DX001 (ip), vehicle: saline", "result": "0 of 6"}
    ]},
    {"smiles": "CCC(=O)Nc1ccccc1OS(=O)(=O)N(C)C", "values": [
      {"measurement": "survivor count", "setting": "[3]", "result": "6 of 6"}
    ]},
    {"smiles": "C[N+](C)(C)CCOC(=O)c1ccccc1CBr", "values": [
      {"measurement": "survivor count", "setting": "T/C endpoint: mean survival time, dose: 100.0 mg/kg/injection, schedule: Q04DX003 (ip), vehicle: saline", "result": "0 of 6"},
      {"measurement": "survivor count", "setting": "T/C endpoint: mean survival time, dose: 200.0 mg/kg/injection, schedule: Q04DX003 (ip), vehicle: saline", "result": "0 of 6"},
      {"measurement": "survivor count", "setting": "[4]", "result": "0 of 6"}
    ]},
    {"smiles": "CN(C)CCNC1=C(Cl)C(=O)c2ccccc2C1=O", "values": [
      {"measurement": "survivor count", "setting": "T/C endpoint: mean survival time, dose: 50.0 mg/kg/injection, schedule: Q04DX003 (ip), vehicle: saline with Tween-80", "result": "0 of 6"},
      {"measurement": "survivor count", "setting": "[3]", "result": "0 of 6"}
    ]},
    {"smiles": "Nc1cc(NCc2ccco2)ncn1", "values": [
      {"measurement": "survivor count", "setting": "T/C endpoint: mean survival time, dose: 150.0 mg/kg/injection, schedule: Q01DX009 (ip), vehicle: Klucel (hydroxypropylcellulose) (HPC)", "result": "3 of 6"},
      {"measurement": "survivor count", "setting": "T/C endpoint: mean survival time, dose: 300.0 mg/kg/injection, schedule: Q01DX009 (ip), vehicle: Klucel (hydroxypropylcellulose) (HPC)", "result": "0 of 6"}
    ]},
    {"smiles": "O=c1nc(-c2ccccc2)c(-c2ccccc2)n[nH]1", "values": [
      {"measurement": "survivor count", "setting": "[4]", "result": "1 of 6"}
    ]},
    {"smiles": "Nc1ncnc2c1ncn2C1OC(COP(=O)(O)O)C(O)C1O", "note": "(stereo not given)", "values": [
      {"measurement": "T/C", "setting": "T/C endpoint: mean survival time, dose: 165.0 mg/kg/injection, schedule: Q03HX024 (ip), vehicle: saline", "result": "125 % of control"},
      {"measurement": "T/C", "setting": "T/C endpoint: mean survival time, dose: 250.0 mg/kg/injection, schedule: Q03HX024 (ip), vehicle: saline", "result": "131 and 139 % of control"},
      {"measurement": "T/C", "setting": "T/C endpoint: mean survival time, dose: 375.0 mg/kg/injection, schedule: Q03HX024 (ip), vehicle: saline", "result": "140 % of control"},
      {"measurement": "T/C", "setting": "T/C endpoint: mean survival time, dose: 400.0 mg/kg/injection, schedule: Q01DX009 (ip), vehicle: water", "result": "134 % of control"},
      {"measurement": "T/C", "setting": "T/C endpoint: mean survival time, dose: 565.0 mg/kg/injection, schedule: Q03HX024 (ip), vehicle: saline", "result": "135 % of control"},
      {"measurement": "T/C", "setting": "T/C endpoint: mean survival time, dose: 1600.0 mg/kg/injection, schedule: Q01DX009 (ip), vehicle: saline", "result": "130 % of control"},
      {"measurement": "T/C", "setting": "T/C endpoint: median survival time, dose: 320.0 mg/kg/injection, schedule: Q01DX009 (ip), vehicle: water", "result": "125 and 127 % of control"}
    ]},
    {"smiles": "O=C(CCCl)c1ccccc1", "values": [
      {"measurement": "survivor count", "setting": "T/C endpoint: mean survival time, dose: 200.0 mg/kg/injection, schedule: Q01DX009 (ip), vehicle: other", "result": "1 of 6"},
      {"measurement": "survivor count", "setting": "T/C endpoint: mean survival time, dose: 400.0 mg/kg/injection, schedule: Q01DX009 (ip), vehicle: other", "result": "4 of 6"}
    ]},
    {"smiles": "Nc1cc(=O)[nH]c(O)c1C(=O)O", "values": [
      {"measurement": "survivor count", "setting": "[5]", "result": "3 of 6"}
    ]},
    {"smiles": "CC1(C)C2CCC1(C(=O)O)CC2", "values": [
      {"measurement": "survivor count", "setting": "[2]", "result": "6 of 6"}
    ]},
    {"smiles": "CNNC(=O)OC", "values": [
      {"measurement": "survivor count", "setting": "T/C endpoint: mean survival time, dose: 200.0 mg/kg/injection, schedule: Q04DX002 (ip), vehicle: saline", "result": "5 of 6 and 3 of 3"},
      {"measurement": "survivor count", "setting": "T/C endpoint: mean survival time, dose: 400.0 mg/kg/injection, schedule: Q04DX002 (ip), vehicle: saline", "result": "0 of 3"}
    ]},
    {"smiles": "C1CCC2C[N-]CCC2C1.C1CCC2C[N-]CCC2C1.C1CCC2C[N-]CCC2C1.C1CCC2C[N-]CCC2C1.[Cl][Rh][Cl]", "note": "(stereo not given)", "values": [
      {"measurement": "survivor count", "setting": "T/C endpoint: mean survival time, dose: 4.0 mg/kg/injection, schedule: Q01DX009 (ip), vehicle: saline with Tween-80", "result": "3 of 6"},
      {"measurement": "survivor count", "setting": "T/C endpoint: mean survival time, dose: 8.0 mg/kg/injection, schedule: Q01DX009 (ip), vehicle: saline with Tween-80", "result": "3 of 6"}
    ]},
    {"smiles": "O=C1C(=O)c2ccccc2C(O)=C1C(C1=C(O)c2ccccc2C(=O)C1=O)c1ccccc1Br", "values": [
      {"measurement": "survivor count", "setting": "[5]", "result": "5 of 6"},
      {"measurement": "survivor count", "setting": "T/C endpoint: mean survival time, dose: 400.0 mg/kg/injection, schedule: Q01DX009 (ip), vehicle: saline with Tween-80", "result": "2 of 6"}
    ]},
    {"smiles": "CC([NH-])C([NH-])O.[Br][Pt+2][Br]", "note": "(stereo not given)", "values": [
      {"measurement": "T/C", "setting": "T/C endpoint: mean survival time, dose: 6.25 mg/kg/injection, schedule: Q04DX003 (ip), vehicle: saline with Tween-80", "result": "130 % of control"},
      {"measurement": "T/C", "setting": "T/C endpoint: mean survival time, dose: 12.5 mg/kg/injection, schedule: Q04DX003 (ip), vehicle: saline with Tween-80", "result": "142 % of control"}
    ]}
  ]
}
